Paper PMC5707026
Results are given in words; binding and its absence hold for the method and conditions named. Binding seen in cells or lysates may run through a third protein. Some entries that bind do so weakly or less than the wild type. Tags and fused reporters may be left off the sequences shown.

Amino acid sequences for entries named in this document (tags omitted). Residues count along the entry.
UniProt Q07008, residues 19-2531: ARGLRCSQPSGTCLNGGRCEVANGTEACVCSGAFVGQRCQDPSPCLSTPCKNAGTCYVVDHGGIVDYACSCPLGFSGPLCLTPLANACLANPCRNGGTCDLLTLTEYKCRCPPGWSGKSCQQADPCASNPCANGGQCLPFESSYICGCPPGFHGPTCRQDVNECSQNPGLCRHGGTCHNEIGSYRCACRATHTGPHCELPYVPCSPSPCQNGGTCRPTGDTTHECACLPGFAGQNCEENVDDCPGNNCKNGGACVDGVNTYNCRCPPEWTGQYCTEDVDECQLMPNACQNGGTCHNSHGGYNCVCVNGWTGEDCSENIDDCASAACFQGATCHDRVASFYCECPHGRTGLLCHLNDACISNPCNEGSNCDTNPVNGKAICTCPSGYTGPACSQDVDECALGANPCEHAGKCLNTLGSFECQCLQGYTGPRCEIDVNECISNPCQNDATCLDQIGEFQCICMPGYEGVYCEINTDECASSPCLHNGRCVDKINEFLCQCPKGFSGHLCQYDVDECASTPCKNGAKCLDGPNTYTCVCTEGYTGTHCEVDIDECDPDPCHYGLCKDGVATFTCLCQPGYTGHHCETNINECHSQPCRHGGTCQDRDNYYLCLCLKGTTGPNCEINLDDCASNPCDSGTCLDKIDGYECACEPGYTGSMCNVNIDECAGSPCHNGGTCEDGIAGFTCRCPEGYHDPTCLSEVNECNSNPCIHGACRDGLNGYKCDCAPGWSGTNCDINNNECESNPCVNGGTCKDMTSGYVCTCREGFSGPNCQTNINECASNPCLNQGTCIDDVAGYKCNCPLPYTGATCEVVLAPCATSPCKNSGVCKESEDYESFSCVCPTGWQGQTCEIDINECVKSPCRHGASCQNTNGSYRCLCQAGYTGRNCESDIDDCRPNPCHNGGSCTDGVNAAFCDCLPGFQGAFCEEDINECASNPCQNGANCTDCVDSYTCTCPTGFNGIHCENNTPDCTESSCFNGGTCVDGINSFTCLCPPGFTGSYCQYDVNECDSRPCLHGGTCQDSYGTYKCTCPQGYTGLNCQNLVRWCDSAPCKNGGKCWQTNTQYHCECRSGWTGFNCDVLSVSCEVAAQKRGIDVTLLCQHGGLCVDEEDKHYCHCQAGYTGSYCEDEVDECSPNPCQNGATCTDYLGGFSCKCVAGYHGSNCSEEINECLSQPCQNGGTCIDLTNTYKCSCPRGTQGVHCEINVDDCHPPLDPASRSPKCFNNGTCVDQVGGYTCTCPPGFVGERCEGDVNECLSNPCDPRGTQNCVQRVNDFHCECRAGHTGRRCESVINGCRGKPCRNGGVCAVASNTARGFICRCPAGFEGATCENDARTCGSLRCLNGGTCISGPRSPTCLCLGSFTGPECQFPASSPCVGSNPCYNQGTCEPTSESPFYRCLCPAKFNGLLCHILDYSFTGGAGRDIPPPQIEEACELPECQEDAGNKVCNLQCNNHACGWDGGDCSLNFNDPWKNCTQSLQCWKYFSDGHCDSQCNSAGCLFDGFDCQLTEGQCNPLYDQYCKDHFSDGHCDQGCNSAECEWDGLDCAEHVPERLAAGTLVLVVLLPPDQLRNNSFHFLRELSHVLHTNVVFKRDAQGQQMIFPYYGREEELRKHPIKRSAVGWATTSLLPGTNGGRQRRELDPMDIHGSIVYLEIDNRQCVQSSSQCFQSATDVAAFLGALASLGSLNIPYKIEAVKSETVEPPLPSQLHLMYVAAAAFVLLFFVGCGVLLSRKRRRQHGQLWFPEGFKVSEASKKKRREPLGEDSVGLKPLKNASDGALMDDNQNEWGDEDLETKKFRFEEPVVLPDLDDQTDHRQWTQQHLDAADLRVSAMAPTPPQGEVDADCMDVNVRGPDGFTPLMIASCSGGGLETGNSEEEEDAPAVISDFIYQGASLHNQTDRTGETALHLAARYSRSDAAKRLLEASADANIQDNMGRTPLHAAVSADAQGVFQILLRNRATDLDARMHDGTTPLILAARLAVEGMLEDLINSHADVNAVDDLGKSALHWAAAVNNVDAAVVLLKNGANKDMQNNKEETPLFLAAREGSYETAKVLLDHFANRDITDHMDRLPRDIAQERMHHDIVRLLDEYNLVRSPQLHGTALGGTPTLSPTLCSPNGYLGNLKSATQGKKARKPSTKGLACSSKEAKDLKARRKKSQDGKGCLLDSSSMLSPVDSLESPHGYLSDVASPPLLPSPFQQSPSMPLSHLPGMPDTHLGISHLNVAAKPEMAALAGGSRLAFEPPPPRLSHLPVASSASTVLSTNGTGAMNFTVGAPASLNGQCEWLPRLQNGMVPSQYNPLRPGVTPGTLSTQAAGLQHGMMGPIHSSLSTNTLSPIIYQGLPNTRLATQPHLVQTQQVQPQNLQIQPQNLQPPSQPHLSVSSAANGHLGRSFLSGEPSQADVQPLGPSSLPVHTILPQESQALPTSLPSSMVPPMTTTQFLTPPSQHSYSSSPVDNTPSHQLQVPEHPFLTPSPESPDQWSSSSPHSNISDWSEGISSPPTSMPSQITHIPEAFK

Target: Notch1 full-length form (Notch1-FL) (rat (endogenous in rat brain)) (UniProt Q07008)
Assay: co-IP; brain samples of ICH rats transfected in vivo with GFP-Botch plasmids, lysed in ice-cold RIPA buffer; lysate with specific antibodies or normal IgG 1 h at 4 °C, protein A+G agarose overnight at 4 °C, immunoblot; which antibody precipitated is not stated

- binding: binds
B1: wild type GFP-Botch (rat Botch, NPG7/Chac1) (protein, UniProt B3STU3 1-222)
chain: MKQESAAQSTPPPSLSPAPSAQPSWEDGDPQALWIFGYGSLVWKPDFAYSDSRVGFVRGYSRRFWQGDTFHRGSDKMPGRVVTLLEDHEGCTWGVAYQVRGEQVSEALKYLNVREAVLGGYDTKEVTFYPQDTPDQPLTALAYVATPQNPGYLGPAPEEVIATQILACRGFSGHNLEYLLRLADFMQLCGPQAQDEHLEAIVDAVGSLLPCSYLSEQPLALI
